Measurements published in paper PMC4546488.
No constants are given. Whether binding was seen depends on the method and setting. Binding seen in cells or lysates may run through a third protein. Some results given as binding are weak or reduced against the parent protein; the word gives no strength.

The chains behind the UniProt entries cited, without tags or fusion partners.
UniProt P04198: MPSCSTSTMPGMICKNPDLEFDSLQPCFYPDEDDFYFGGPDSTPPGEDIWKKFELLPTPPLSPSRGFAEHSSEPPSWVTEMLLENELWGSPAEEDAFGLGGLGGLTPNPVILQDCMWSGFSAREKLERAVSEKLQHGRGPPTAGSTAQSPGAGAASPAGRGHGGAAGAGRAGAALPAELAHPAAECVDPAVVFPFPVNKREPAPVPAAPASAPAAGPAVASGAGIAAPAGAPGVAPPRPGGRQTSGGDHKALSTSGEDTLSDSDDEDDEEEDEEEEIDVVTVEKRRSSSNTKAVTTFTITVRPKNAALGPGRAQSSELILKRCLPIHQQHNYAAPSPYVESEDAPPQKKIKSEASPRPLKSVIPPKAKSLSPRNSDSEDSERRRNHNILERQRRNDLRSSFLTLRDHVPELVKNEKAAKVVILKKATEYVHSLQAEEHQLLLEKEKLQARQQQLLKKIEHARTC
UniProt P61244: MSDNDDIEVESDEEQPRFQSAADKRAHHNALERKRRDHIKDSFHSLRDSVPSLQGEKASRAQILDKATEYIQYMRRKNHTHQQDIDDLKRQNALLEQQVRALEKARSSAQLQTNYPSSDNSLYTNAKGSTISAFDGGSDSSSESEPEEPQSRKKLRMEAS

Target: MYCN (human (endogenous in Tet-21/N)) (UniProt P04198)
Assay: co-IP; lysate of untreated Tet-21/N cells (MYCN-ON), 1 mg extract, immunoprecipitated with anti-MYCN antibody (sc-53993), overnight at 4°C, washed in buffer F, blotted for MYCN, LSD1 and MAX

- binding: binds
Substance: MAX (from UniProt P61244 1-160)
